Test results: PubChem BioAssay AID1259415 (National Center for Advancing Translational Sciences (NCATS), 2018)
Out of some 410,000 compounds screened, about 18,000 (4.4%) were called active. The shares of active, inactive and inconclusive entries below differ from those in the screen. Rule as the data show it: active = activity change below about -60%; inconclusive = no clear call, values can overlap the other calls; inactive = above about -39%.

experiment: qHTS Assay for inhibitors of the human cytomegalovirus (HCMV); conditions: HFF cells, HCMV-luciferase reporter, 72 h; at 57.5 µM; hits give low values
Summary of the method: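 After 16 h attachment at 37C, HFF cells received test compound and HCMV-luciferase (1 PFU/cell); reporter luminescence read 72 h later, data normalized against buffer-only and known inhibitor Salinomycin.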
% is scaled to controls: 0 for no effect and ±100 for the full control effect.

SMILES	activity change, negative = inhibition
CC1CCN(C(=O)C2CCN(c3nnc(-n4cccc4)s3)CC2)CC1	inconclusive: -41.2%
CC(C)Cn1c(C2CC(=O)N(c3ccccc3Cl)C2)nc2ccccc21 (configuration not stated)	inactive: -19.6%
CCCc1[nH]c2ccc(C#N)cc2c1CCC	inconclusive: -46.1%
O=C(Cn1nc(-c2ccccc2)nc(Cc2ccccc2)c1=O)Nc1ccc(Cl)cc1	inconclusive: -43.1%
CN1CCN(C2=C(Cl)C(=O)N(CCc3ccccc3)C2=O)CC1	active: -68.4%
COc1ccccc1CCC(=O)N1CCC(n2nccc2NC(=O)CC(C)C)CC1	inconclusive: -40.4%
CCCCOc1cccc(C2C(C(=O)c3ccc(C)o3)=C(O)C(=O)N2Cc2ccco2)c1 (configuration not stated)	inconclusive: -44.7%
CCCOc1ccc(NC(=O)CC2C(=O)N(c3ccc(C)cc3)C(=O)N2CCc2ccncc2)cc1 (configuration not stated)	inactive: -36%
COc1cccc(C(=O)Nc2ccc(C(=O)c3ccccc3)cc2)c1	inconclusive: -40.1%
COC(=O)c1ccc(NC(=O)C2CC3CCC2C3)cc1 (configuration not stated)	inactive: -39%
COc1ccc(Br)cc1/C(C)=N/NC1=NCCN1	inconclusive: -48.7%
CCCCS(=O)(=O)c1oc(-c2cccs2)nc1S(=O)(=O)c1ccc(F)cc1	active: -97.8%
O=C(O)COc1ccc(/C=N/NC(=O)C(O)(c2ccccc2)c2ccccc2)cc1	inactive: -2.2%
N#Cc1ccccc1NC(=O)CSc1nccn1CCc1ccccc1	inactive: 113%
Cc1ccnc(NC(=O)Cc2ccc([N+](=O)[O-])cc2)c1	inconclusive: -49.1%
Cc1cc(N2CCN(C(=O)c3ccco3)CC2)nc(-c2ccccc2)n1	inactive: 16.9%
O=c1c(NCc2ccccc2Cl)nccn1-c1ccccc1	inactive: 41.8%
COc1ccc(CNC(=O)CCc2c(C)c3cc4c(C)c(C)oc4cc3oc2=O)cc1	inconclusive: -60%
[O-][N+]1=c2ccc(Nc3ccccc3)cc2=NC12CCCCC2	inconclusive: -42.4%
CN(C)c1ccc(C=Nc2ccc(N(C)C)cc2)cc1	active: -72.1%
CCCOP(=O)(c1ccc(N(C)C)cc1)C(O)c1ccccc1OC (configuration not stated)	inactive: 24.1%
N#Cc1cccc(NC(=O)Cn2c3[n+](c4ccc(C(F)(F)F)cc42)CCCCC3)c1	inconclusive: -46.5%

SMILES	activity change, negative = inhibition
CCc1cc2c(=O)n(Cc3ccco3)c(SCC(=O)NCC3CCCO3)nc2s1 (configuration not stated)	inconclusive: -51.2%
Cc1onc(-c2c(Cl)cccc2Cl)c1C(=O)NC1CCCCC1	inactive: 2.46%
CC1(C)CC(=O)c2c(O)cc(OCC(=O)Nc3ccc(CCO)cc3)cc2O1	inactive: -24.6%
Cc1ncoc1C(=O)N1CCCC(C(=O)Nc2cccc(-c3ccc(F)cc3)c2)C1 (configuration not stated)	inconclusive: -49.6%
COc1ccc(NS(=O)(=O)c2cccc(C(=O)NNC(=O)NCCCl)c2)cc1	active: -64.9%
O=C(N/N=C/c1cc([N+](=O)[O-])ccc1O)c1cccc(NC(=O)c2cccc(Cl)c2)c1	inconclusive: -55.6%
COc1cccc(CC(=O)Nc2nc(-c3ccc(F)c(F)c3)cs2)c1	inconclusive: -40.4%
Cc1cccc2cc(CN(CC3CCCO3)C(=S)NCc3ccco3)c(=O)[nH]c12 (configuration not stated)	inconclusive: -51.7%
Cn1cc(S(=O)(=O)N2CCN(c3cccc(Cl)c3)CC2)c(=O)n(C)c1=O	inconclusive: 0%
Cc1cccn2c(=O)c3cc(C(=O)NC4CCCCC4)n(C)c3nc12	inconclusive: -51.6%
COc1ccccc1NC(=O)Nc1ccnn1C1CCN(C(=O)c2ccccn2)CC1	inconclusive: -46%
C#CCOCCOCCOCCNc1nc(N2CCOCC2)nc(N2CCN(C(=O)[C@H](CCCCN)n3cc([C@@H](N)CO)nn3)CC2)n1	inconclusive: -58.3%
CCOC(=O)C1CCNC(=O)C1=O (configuration not stated)	inconclusive: -41.1%
Cc1cccc(-c2nc3ccccc3c(=O)n2NC(=O)c2cccnc2Cl)c1	active: -68.7%
CCc1nnc(NC(=O)c2ccc3ccccc3n2)s1	inactive: 37%
COc1ccc(S(=O)(=O)N2CCN=C2SCc2cccnc2)cc1	inconclusive: -58.9%
O=C(NCCc1nc2ccccc2[nH]1)/C(=C/c1ccc2c(c1)OCO2)NC(=O)c1ccc(Cl)cc1Cl	inconclusive: -56.8%
CCOc1ccc(N(C)C(=O)CCc2nnc3ccc(N4CCC5(CC4)OCCO5)nn23)cc1	inconclusive: -45%
COc1ccc(OC)c(NC(=O)C2CCN(S(=O)(=O)c3c(C)noc3C)CC2)c1	inconclusive: -50%
O=C(CCC(=O)N1CCN(c2ccccn2)CC1)c1ccc(Cl)s1	inconclusive: -47%
CCOc1ccc(NC(=O)C2CCCN(c3cnccn3)C2)cc1 (configuration not stated)	inconclusive: 0%
Cc1cc(C(F)(F)F)c(C#N)c(SCC(=O)Nc2nc3cc(Br)ccc3s2)n1	inconclusive: -50.3%

SMILES	activity change, negative = inhibition
O=[N+]([O-])c1cccnc1N1CCN(c2ccccc2F)CC1	active: -60.7%
CCc1sc(C(=O)Nc2ncccc2O)cc1C	inconclusive: -48.6%
CCOC(=O)C1=C(COC(=O)c2cccnc2SC)NC(=O)NC1C (configuration not stated)	inconclusive: -52%
O=c1c2ccccc2nc(SCc2nnc(-c3ccccc3)o2)n1-c1ccc(F)cc1F	inconclusive: -42.1%
O=C(NCC(c1ccc(F)cc1)N1CCOCC1)c1cccnc1Sc1ccccc1 (configuration not stated)	inactive: 27.1%
CC(=O)c1cc(C#N)c(SCC(=O)OC(C)C)nc1C	inactive: -24.1%
Fc1ccc(NC(=S)Nc2nccs2)cc1	active: -115%
Cc1ccn2c(CN3CCOCC3)c(-c3ccccc3)nc2c1	inactive: 24.3%
O=C(Nc1cccc(C(=O)O)c1)/C(=C\C=C\c1ccccc1)NC(=O)c1ccccc1	active: -104%
Cc1cccc2sc(NNC(=O)c3cc(-c4cccs4)nc4ccccc34)nc12	active: -68.4%
O=C(NCC1CCCCC1)c1cccc(-c2ccc(O)cc2)c1	inconclusive: -55.9%
CCc1ccc(NC(=O)CCn2c(=O)oc3ccccc32)cc1	inconclusive: -40.7%
CCn1c(=O)c(C(=O)NNC(=O)c2cccc(Cl)c2)c(O)c2ccccc21	inconclusive: -52.4%
CCc1nc2ccccc2c(C(=O)OCC(=O)Nc2ccc(NC(C)=O)cc2)c1C	inconclusive: -59.2%
O=C(CSc1nnc(-c2ccc(F)cc2)c2ccccc12)Nc1ccccc1Cl	inactive: 16.1%
O=C(NNC(=S)Nc1ccccc1)c1ccc(O)cc1	inactive: 5.42%
CS(=O)(=O)c1ccc(Nc2nc(C(N)Cc3ccc(C(F)(F)F)cc3)cs2)cc1 (configuration not stated)	inconclusive: -48.8%
CCOC(=O)N1CCN(C(=O)c2cn(CC)c3ccc(S(=O)(=O)N4CCC(C)CC4)cc3c2=O)CC1	inconclusive: -42.2%
Cc1nnc(N2CCCC(C(=O)NCCN(C)C)C2)c2nn(-c3ccccc3)c(C)c12 (configuration not stated)	inconclusive: -44.1%
CCCCN(C(=O)c1ccc2c(c1)OCO2)c1ccccc1	inconclusive: -47.2%
CCNC(=S)Nc1cc(C(=O)N2CCCC2)ccc1N1CCCC1	inconclusive: -43.5%
CCOC(=O)C1=CCN(S(=O)(=O)c2ccc(C)cc2)C1c1cccc2ccccc12 (configuration not stated)	inconclusive: -51.3%

SMILES	activity change, negative = inhibition
Cc1cccc(OCCOc2ccc(/C=N/NC(=O)Cc3nnc(N)s3)cc2)c1	inconclusive: -45.4%
CCOc1cc(C(=O)NC(C)C2CC3CCC2C3)cc(OCC)c1OCC (configuration not stated)	inactive: -23.3%
O=C(C[C@H]1CC[C@H]2[C@@H](COC[C@@H](O)CN2S(=O)(=O)c2ccc(F)cc2)O1)N[C@@H]1CCN(Cc2ccccc2)C1	inactive: 44.9%
Cn1nc(/C=C/c2ccccc2)ccc1=O	inconclusive: -46.1%
CC(C)CNC(=O)c1ccccc1NC(=O)/C=C/c1cccc([N+](=O)[O-])c1	inactive: -7.19%
O=C1C2C(C(=O)N1/N=C/c1ccco1)C1C=CC2C12CC2 (configuration not stated)	inactive: 35.3%
CCOC(=O)c1noc2ncnc(Nc3cc(Cl)c(OC)cc3OC)c12	inactive: -0.361%
Cc1cccc(NC(=S)NCCc2ccc(Cl)cc2)c1C	inconclusive: -43.4%
COc1ccc(NC(=S)NC(C)c2ccncc2)cc1OC (configuration not stated)	inconclusive: -52.8%
CC(Cc1cccs1)NC(=S)Nc1ccc(Cl)c(Cl)c1 (configuration not stated)	inconclusive: -48.5%
O=C(Cc1ccc(Cl)cc1)Nc1ccccc1N1CCN(C(=O)c2ccccc2)CC1	inconclusive: -41.9%
CCOC(=O)c1c(NC(=O)c2noc(C)c2[N+](=O)[O-])sc(C(C)=O)c1C	inconclusive: -40.4%
CCN(CC(=O)Nc1ccc(S(=O)(=O)N2CCOCC2)cc1)Cc1ccccc1	inactive: -14.4%
COCCNC(=S)N(CCc1c(C)[nH]c2ccc(F)cc12)Cc1cccs1	inconclusive: -49.9%
Cc1ccc(NC(=O)CN(C)S(=O)(=O)c2ccc3c(c2)n(C)c(=O)c(=O)n3C)cc1	inconclusive: -43.8%
COCCNC(=O)c1ccc2c(c1)ncn2-c1ccc(C)c(Cl)c1	inactive: 52.5%
Cc1ccc(NC(=O)c2cnc(SCC(=O)N3CCCc4ccccc43)n(C)c2=O)cc1	inconclusive: -49.7%
COC(=O)C1Cc2ccccc2CN1C(=O)CCl (configuration not stated)	inconclusive: -55.3%
O=C(CSc1nnc(-c2ccccc2F)n1C1CC1)NC(=O)c1cccc([N+](=O)[O-])c1	inconclusive: -59.4%
CN(Cc1ccccc1)C(=O)c1ccc(NC(=O)C2=CSCCO2)cc1	inactive: -15.4%
Cc1c(OCC(=O)NCC(O)c2ccccc2)ccc2c(-c3ccccc3)cc(=O)oc12 (configuration not stated)	inconclusive: -52.7%

Sorted by formula weight (falling): some entries from above.
SMILES	activity change, negative = inhibition
Cc1ccc(NC(=O)c2cnc(SCC(=O)N3CCCc4ccccc43)n(C)c2=O)cc1	inconclusive: -49.7%
CCOc1cc(C(=O)NC(C)C2CC3CCC2C3)cc(OCC)c1OCC (configuration not stated)	inactive: -23.3%
COCCNC(=O)c1ccc2c(c1)ncn2-c1ccc(C)c(Cl)c1	inactive: 52.5%
